# From the supplement of paper PMC9549374
# This is one part of the list. No stated cut-off is given here; in the data, active = 2-fold of DMSO or more and inactive = the rest. Single values of this set are uncertain. Some low values are a fixed figure set by the source, not a measured ratio.
# Tested on: CM7/1-hgem mouse ES cell-derived cardiomyocytes
# Experiment: maximal number of mAG-hGem(1/110)-positive cardiomyocytes over 96 h, fold-change vs DMSO; higher = more cardiomyocyte cell cycle activity
# Details: 1 µM; 96 (max over 12 h time points) h
row,Compound,maximal number
1,CC=CC1=C(C(=O)O)N2C(=O)[C@@H](NC(=O)[C@H](N)c3ccc(O)cc3)[C@H]2SC1,inactive: 1
2,CC1(C)C[C@@H]2C(=O)CC[C@H]3O[C@]3(C)CC[C@H]21,inactive: 1
3,COC(=O)C[C@H]1C(C)(C)C(=O)[C@@H]2CC3C4=CC(=O)O[C@@H](c5ccoc5)[C@]4(C)CC[C@@H]3[C@@]1(C)C2=O (stereo not given in full),inactive: 0
4,CCS(=O)(=O)CCn1c([N+](=O)[O-])cnc1C,inactive: 1
5,COc1ccc(C2C(=O)c3ccccc3C2=O)cc1,inactive: 1
6,CN1CCN(c2c(F)cc3c(=O)c(C(=O)O)cn4c3c2SCC4)CC1,inactive: 0
7,COc1ccc(-c2cc(=O)c3c(OC(C)=O)cc(OC(C)=O)cc3o2)cc1,inactive: 1
8,COc1cc2c(cc1OC)-c1cc3ccc(OC)c(OC)c3c[n+]1CC2,inactive: 0
9,CCN(CC)C(=O)C1(c2ccccc2)CC1CN (stereo not given),inactive: 1
10,CO[C@H]1C[C@@H]2CC[C@@H](C)[C@@](O)(O2)C(=O)C(=O)N2CCCC[C@H]2C(=O)O[C@H]([C@H](C)C[C@@H]2CC[C@@H](O)[C@H](OC)C2)CC(=O)[C@H](C)/C=C(\C)[C@@H](O)[C@@H](OC)C(=O)[C@H](C)C[C@H](C)/C=C/C=C/C=C/1C,inactive: 0
11,Nc1ccccc1C(=O)CC(N)C(=O)O (stereo not given),inactive: 1
12,Nc1nc(N)nc(-c2cc(Cl)ccc2Cl)n1,inactive: 1
13,CC(C)c1c(C(=O)Nc2ccccc2)c(-c2ccccc2)c(-c2ccc(F)cc2)n1CC[C@@H](O)C[C@@H](O)CC(=O)O,inactive: 1
14,OC[C@@H](O)[C@@H](O[C@@H]1O[C@H](CO)[C@@H](O)[C@H](O)[C@H]1O)[C@H](O)[C@@H](O)CO,inactive: 1
15,O=C1CC2(CCCC2)CC(=O)N1CCCCN1CCN(c2ncccn2)CC1,inactive: 1
16,CCC1(C)CC(=O)NC1=O (stereo not given),inactive: 1
17,CCc1ccc2c(O)c3c(cc2c1C(=O)OC)C(=O)c1c(O)ccc(O)c1C3=O,inactive: 1
18,CC1(C)CC[C@]2(C(=O)O)CC[C@]3(C)C(=CC[C@@H]4[C@@]5(C)CC[C@H](O)[C@@](C)(CO)[C@@H]5CC[C@]43C)[C@@H]2C1,inactive: 1
19,O=C(/C=C/c1ccc(O)c(O)c1)O[C@@H]1C[C@](O)(C(=O)O)C[C@@H](O)[C@H]1O,inactive: 1
20,CN1CCc2c(c3ccccc3n2Cc2ccccc2)C1,inactive: 1
21,O=c1c(-c2ccc(O)cc2)coc2cc(O)cc(O)c12,inactive: 1
22,O=c1[nH]c(=O)n([C@H]2C[C@H](O)[C@@H](CO)O2)cc1I,inactive: 1
23,O=C(O)[C@@H]1[C@H]2C[C@H]3c4[nH]c5ccccc5c4CCN3C[C@@H]2CC[C@@H]1O,inactive: 1
24,CCOC(=O)[C@H](CCc1ccccc1)N[C@@H](C)C(=O)N1CC2(C[C@H]1C(=O)O)SCCS2,inactive: 1
25,CC(C)Cn1cnc2c(N)nc3ccccc3c21,inactive: 1
26,N#CCC(=O)NN,inactive: 1
27,Nc1c2ccccc2nc2ccccc12,inactive: 1
28,CC(=O)O[C@H]1CC[C@]2(C)C(C[C@@H](OC(C)=O)[C@]3(C)C4=CC(=O)O[C@H](c5ccoc5)[C@@]4(C)CCC23)C1(C)C (stereo partly drawn) [3-DEOXO-3beta-ACETOXYDEOXYDIHYDROGEDUNIN],inactive: 1
29,COc1ccc(-c2coc3cc(O)ccc3c2=O)c(OC)c1,inactive: 1
30,CC(=O)O[C@H]1CC[C@]2(C)[C@H]3CC[C@@]4(C)[C@H](c5ccoc5)OC(=O)[C@H]5O[C@]54[C@]3(C)[C@H](OC(C)=O)C[C@H]2C1(C)C [3beta-ACETOXYDEOXODIHYDROGEDUNIN],inactive: 1

# In another format: entries from further up
row	Compound	maximal number
2	CC1(C)C[C@@H]2C(=O)CC[C@H]3O[C@]3(C)CC[C@H]21	inactive: 1
3	COC(=O)C[C@H]1C(C)(C)C(=O)[C@@H]2CC3C4=CC(=O)O[C@@H](c5ccoc5)[C@]4(C)CC[C@@H]3[C@@]1(C)C2=O (stereo not given in full)	inactive: 0
